Our source for the binding values is article PMC10570020.

Amino acid sequences for entries named in this document (tags omitted).
UniProt Q99755: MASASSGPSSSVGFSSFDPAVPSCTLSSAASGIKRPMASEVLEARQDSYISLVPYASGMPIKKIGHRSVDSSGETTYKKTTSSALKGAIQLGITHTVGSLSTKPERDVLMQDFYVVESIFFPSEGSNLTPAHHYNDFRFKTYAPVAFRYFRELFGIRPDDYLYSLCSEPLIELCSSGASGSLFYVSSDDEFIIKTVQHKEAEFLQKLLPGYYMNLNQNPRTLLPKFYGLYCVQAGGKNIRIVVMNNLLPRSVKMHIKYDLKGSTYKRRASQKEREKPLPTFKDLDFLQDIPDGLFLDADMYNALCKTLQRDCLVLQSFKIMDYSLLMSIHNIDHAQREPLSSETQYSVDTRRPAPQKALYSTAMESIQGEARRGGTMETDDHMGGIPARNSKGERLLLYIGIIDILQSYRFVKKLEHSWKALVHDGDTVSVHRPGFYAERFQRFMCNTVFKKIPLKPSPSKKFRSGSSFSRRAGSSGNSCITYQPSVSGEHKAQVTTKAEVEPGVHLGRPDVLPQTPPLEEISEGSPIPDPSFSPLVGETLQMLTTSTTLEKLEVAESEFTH
UniProt Q9HAV4: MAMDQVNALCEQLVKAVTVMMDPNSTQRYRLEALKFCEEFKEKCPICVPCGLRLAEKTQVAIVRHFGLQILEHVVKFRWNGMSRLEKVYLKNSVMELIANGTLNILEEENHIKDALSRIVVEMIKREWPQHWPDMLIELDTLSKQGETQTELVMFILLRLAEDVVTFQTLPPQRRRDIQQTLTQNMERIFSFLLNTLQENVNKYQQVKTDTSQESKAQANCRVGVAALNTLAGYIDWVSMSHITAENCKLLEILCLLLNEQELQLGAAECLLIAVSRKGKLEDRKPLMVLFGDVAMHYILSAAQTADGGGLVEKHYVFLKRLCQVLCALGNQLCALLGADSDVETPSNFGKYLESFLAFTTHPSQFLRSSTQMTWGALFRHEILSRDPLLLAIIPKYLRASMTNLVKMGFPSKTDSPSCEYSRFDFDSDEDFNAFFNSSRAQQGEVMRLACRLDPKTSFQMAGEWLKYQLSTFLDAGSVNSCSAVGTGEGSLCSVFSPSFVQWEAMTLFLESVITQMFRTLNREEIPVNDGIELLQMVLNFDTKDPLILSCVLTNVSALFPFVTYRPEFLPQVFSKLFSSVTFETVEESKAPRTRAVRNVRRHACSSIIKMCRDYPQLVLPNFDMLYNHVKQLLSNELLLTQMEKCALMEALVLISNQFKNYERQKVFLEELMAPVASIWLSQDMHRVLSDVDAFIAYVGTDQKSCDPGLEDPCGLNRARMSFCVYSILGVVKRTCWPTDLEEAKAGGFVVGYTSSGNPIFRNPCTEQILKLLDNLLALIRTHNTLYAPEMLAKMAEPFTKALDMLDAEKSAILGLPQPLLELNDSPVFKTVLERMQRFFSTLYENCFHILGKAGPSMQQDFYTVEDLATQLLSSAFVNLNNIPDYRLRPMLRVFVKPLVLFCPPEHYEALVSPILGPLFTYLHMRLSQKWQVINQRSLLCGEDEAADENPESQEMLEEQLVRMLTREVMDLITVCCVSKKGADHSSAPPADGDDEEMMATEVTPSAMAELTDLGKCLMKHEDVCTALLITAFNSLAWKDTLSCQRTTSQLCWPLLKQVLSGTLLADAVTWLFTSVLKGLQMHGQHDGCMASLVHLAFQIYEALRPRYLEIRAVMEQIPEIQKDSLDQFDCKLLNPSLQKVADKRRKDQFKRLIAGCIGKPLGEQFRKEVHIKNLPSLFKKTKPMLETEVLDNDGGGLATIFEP
UniProt Q13263: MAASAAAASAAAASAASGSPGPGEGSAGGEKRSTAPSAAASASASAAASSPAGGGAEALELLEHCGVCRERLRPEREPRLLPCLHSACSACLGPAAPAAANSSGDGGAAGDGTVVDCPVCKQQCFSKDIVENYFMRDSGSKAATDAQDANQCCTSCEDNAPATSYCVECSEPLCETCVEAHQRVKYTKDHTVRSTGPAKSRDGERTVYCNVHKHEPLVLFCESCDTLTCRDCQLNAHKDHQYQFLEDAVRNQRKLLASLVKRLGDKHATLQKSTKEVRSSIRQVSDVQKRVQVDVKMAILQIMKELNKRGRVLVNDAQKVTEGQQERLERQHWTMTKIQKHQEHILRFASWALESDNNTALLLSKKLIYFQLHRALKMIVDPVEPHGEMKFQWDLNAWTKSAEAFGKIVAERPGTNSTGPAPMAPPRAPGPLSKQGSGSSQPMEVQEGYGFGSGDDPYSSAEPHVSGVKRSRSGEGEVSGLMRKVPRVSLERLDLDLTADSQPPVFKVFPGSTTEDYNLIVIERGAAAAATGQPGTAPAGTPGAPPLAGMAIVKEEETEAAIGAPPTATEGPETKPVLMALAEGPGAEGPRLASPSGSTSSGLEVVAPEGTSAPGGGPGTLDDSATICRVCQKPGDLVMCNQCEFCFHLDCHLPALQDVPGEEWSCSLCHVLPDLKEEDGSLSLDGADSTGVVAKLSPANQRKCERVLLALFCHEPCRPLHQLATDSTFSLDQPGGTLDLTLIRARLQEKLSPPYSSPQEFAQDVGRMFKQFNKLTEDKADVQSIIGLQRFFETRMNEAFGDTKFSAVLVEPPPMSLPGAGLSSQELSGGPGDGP

Results are given in words; binding and its absence hold for the method and conditions named. Binding seen in cells or lysates may run through a third protein. Some entries that bind do so weakly or less than the wild type.

In assay [1] the target is Phosphatidylinositol-4-phosphate 5-kinase type 1 alpha (PIP5K1A), endogenous (human (endogenous in HEK293)) (UniProt Q99755). The experiment in a line: co-IP; endogenous PIP5K1A immunoprecipitated from HEK293 cell lysate with anti-PIP5K1A (pre-conjugated with protein A magnetic beads), overnight at 4°C; XPO5 detected by immunoblot; normal IgG as negative control. (In general: In western blotting, separated proteins are transferred to a membrane and probed.)

For assay [2], the target named is HA-XPO5 (N-terminus tagged) (human) (UniProt Q9HAV4). The experiment in a line: co-IP; cells transfected with the HA-tagged bait, lysed 48 h later in IP lysis buffer; anti-HA magnetic beads overnight at 4°C; PIP5K1A detected by immunoblot; normal IgG as negative control.
The target in assay [3] is HA-KAP1 (KRAB-associated protein) (UniProt Q13263). The description is as above.

Consider “Exportin 5 (XPO5), endogenous (from UniProt Q9HAV4 1-1204)”, for which the binding result in assay [1] was “binds”. Take “Phosphatidylinositol-4-phosphate 5-kinase type 1 alpha (PIP5K1A), endogenous (from UniProt Q99755 1-562) (enzyme)”: the binding entry is on record as “binds” in assay [2] and “no binding” in assay [3].
